Data on 3 molecules can be found in paper PMC5291280.

Chains of the proteins cited; added tags and fusions are not shown.
UniProt P26196: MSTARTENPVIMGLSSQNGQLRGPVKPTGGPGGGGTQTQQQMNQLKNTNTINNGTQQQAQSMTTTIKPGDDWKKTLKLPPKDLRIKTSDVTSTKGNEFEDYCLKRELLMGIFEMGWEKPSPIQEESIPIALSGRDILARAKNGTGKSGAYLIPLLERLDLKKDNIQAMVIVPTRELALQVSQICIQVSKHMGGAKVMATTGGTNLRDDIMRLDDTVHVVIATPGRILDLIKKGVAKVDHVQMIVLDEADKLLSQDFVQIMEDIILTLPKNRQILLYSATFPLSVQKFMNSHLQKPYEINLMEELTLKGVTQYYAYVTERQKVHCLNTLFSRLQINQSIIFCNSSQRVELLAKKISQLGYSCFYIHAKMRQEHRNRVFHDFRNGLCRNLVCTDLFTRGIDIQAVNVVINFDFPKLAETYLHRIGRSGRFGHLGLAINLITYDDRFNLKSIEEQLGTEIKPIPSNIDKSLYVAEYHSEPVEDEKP
UniProt Q8ND56: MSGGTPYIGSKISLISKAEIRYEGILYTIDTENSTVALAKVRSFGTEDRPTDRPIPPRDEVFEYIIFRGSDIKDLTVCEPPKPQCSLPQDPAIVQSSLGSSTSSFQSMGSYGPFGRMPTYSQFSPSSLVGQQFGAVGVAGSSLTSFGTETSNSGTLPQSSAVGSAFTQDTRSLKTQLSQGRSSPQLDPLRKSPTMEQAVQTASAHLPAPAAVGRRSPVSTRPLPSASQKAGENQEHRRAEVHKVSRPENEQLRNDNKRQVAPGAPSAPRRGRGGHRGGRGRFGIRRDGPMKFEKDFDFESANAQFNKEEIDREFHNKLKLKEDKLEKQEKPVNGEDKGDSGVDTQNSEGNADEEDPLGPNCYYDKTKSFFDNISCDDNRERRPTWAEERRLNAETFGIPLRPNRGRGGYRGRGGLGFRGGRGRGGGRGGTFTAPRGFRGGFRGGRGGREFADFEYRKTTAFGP

What all share (assay): co-IP; anti-FLAG M2 beads on lysates of transfected HEK293T cells, eluted with SDS loading buffer, western blot; lysates with or without RNase A (40 μg/ml); in some panels cells also given siRNA against β-globin, DDX6, UNR or unrip, or co-transfected with HA-DDX6
Test [1] addresses T1, FLAG-4E-T 441-985 (human) (UniProt Q9NRA8).
T1 sequence: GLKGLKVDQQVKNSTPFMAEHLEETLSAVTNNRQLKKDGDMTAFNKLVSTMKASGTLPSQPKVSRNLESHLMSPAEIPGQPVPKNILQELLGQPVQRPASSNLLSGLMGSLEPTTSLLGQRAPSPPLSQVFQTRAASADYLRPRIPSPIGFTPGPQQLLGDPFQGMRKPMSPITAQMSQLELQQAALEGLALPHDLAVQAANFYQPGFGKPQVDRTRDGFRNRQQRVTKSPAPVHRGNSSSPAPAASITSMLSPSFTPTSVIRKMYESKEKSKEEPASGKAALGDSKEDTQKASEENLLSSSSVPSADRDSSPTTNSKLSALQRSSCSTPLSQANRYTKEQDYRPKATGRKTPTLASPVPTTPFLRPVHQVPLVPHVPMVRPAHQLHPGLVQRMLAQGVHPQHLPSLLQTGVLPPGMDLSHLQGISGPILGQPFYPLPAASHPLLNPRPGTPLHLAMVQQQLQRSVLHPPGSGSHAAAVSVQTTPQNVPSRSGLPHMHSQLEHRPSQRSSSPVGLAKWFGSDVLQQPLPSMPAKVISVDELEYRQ

The target in a further test is T2, FLAG-4E-T1-193 (human) (UniProt Q9NRA8).
T2 sequence: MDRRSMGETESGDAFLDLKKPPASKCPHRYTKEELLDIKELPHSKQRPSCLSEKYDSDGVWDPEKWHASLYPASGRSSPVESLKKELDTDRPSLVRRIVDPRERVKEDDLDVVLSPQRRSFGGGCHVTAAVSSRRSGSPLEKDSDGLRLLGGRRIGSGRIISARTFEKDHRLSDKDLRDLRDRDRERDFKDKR

A further test deals with FLAG-DDX6 (human) (UniProt P26196).
For another test, the target named is T3, FLAG-unrip (human) (UniProt Q9Y3F4).
T3 sequence: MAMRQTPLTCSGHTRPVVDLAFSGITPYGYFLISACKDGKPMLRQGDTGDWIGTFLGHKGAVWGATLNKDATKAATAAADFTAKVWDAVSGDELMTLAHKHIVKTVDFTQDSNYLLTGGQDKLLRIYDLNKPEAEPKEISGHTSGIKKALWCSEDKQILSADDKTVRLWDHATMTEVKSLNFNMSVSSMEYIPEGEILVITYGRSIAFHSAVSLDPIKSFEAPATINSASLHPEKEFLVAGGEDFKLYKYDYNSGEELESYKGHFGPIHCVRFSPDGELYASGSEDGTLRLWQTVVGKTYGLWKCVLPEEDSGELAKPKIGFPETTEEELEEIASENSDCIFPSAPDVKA

Test [2] addresses T4, FLAG-UNRΔC (UNR1-744) (human) (UniProt O75534).
T4 sequence: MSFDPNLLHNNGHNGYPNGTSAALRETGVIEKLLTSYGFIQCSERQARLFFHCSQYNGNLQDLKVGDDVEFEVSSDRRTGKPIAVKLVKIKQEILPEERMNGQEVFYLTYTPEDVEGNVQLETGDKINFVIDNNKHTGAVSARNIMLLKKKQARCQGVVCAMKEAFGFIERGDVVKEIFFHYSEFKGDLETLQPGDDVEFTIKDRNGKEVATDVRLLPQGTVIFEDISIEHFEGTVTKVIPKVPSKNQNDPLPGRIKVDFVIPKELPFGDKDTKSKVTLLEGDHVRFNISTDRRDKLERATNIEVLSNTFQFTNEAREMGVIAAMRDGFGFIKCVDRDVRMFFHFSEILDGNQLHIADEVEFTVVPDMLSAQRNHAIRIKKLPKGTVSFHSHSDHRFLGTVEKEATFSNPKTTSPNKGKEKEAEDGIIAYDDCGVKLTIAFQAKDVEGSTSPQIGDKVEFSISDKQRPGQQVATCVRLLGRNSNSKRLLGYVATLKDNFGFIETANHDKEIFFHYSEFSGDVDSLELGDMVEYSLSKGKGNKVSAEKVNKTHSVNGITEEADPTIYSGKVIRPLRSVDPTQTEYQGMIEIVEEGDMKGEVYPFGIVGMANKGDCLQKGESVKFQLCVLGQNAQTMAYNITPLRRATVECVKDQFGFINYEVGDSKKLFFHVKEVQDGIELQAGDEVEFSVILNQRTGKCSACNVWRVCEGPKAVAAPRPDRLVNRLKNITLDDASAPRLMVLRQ

Results are given in words; binding and its absence hold for the method and conditions named. Binding seen in cells or lysates may run through a third protein. Some binding calls cover weakened binding; strength is not graded here. For some assays here: Where a sequence is shown, tags or fusion partners need not be part of it.

Take “LSM14A, endogenous (from UniProt Q8ND56 1-463)”: the binding entry in test [1] is reported as “binds”; with FLAG-4E-T1-193 (human), “no binding”; in the test with FLAG-DDX6 (human), “binds”; in the test with FLAG-unrip (human), “binds”.

B1: CNOT4, endogenous (protein, UniProt O95628 1-575)
chain: MSRSPDAKEDPVECPLCMEPLEIDDINFFPCTCGYQICRFCWHRIRTDENGLCPACRKPYPEDPAVYKPLSQEELQRIKNEKKQKQNERKQKISENRKHLASVRVVQKNLVFVVGLSQRLADPEVLKRPEYFGKFGKIHKVVINNSTSYAGSQGPSASAYVTYIRSEDALRAIQCVNNVVVDGRTLKASLGTTKYCSYFLKNMQCPKPDCMYLHELGDEAASFTKEEMQAGKHQEYEQKLLQELYKLNPNFLQLSTGSVDKNKNKVTPLQRYDTPIDKPSDSLSIGNGDNSQQISNSDTPSPPPGLSKSNPVIPISSSNHSARSPFEGAVTESQSLFSDNFRHPNPIPSGLPPFPSSPQTSSDWPTAPEPQSLFTSETIPVSSSTDWQAAFGFGSSKQPEDDLGFDPFDVTRKALADLIEKELSVQDQPSLSPTSLQNSSSHTTTAKGPGSGFLHPAAATNANSLNSTFSVLPQRFPQFQQHRAVYNSFSFPGQAARYPWMAFPRNSIMHLNHTANPTSNSNFLDLNLPPQHNTGLGGIPVAGEEEVKVSTMPLSTSSHSLQQGQQPTSLHTTVA
As to B1, the binding result in test [2] is “binds”.

B2: PAT1B, endogenous (protein, UniProt Q86TB9 1-770)
chain: MFRYESLEDCPLDEDEDAFQGLGEEDEEIDQFNDDTFGSGAVDDDWQEAHERLAELEEKLPVAVNEQTGNGERDEMDLLGDHEENLAERLSKMVIENELEDPAIMRAVQTRPVLQPQPGSLNSSIWDGSEVLRRIRGPLLAQEMPTVSVLEYALPQRPPQGPEDDRDLSERALPRRSTSPIIGSPPVRAVPIGTPPKQMAVPSFTQQILCPKPVHVRPPMPPRYPAPYGERMSPNQLCSVPNSSLLGHPFPPSVPPVLSPLQRAQLLGGAQLQPGRMSPSQFARVPGFVGSPLAAMNPKLLQGRVGQMLPPAPGFRAFFSAPPSATPPPQQHPPGPGPHLQNLRSQAPMFRPDTTHLHPQHRRLLHQRQQQNRSQHRNLNGAGDRGSHRSSHQDHLRKDPYANLMLQREKDWVSKIQMMQLQSTDPYLDDFYYQNYFEKLEKLSAAEEIQGDGPKKERTKLITPQVAKLEHAYKPVQFEGSLGKLTVSSVNNPRKMIDAVVTSRSEDDETKEKQVRDKRRKTLVIIEKTYSLLLDVEDYERRYLLSLEEERPALMDDRKHKICSMYDNLRGKLPGQERPSDDHFVQIMCIRKGKRMVARILPFLSTEQAADILMTTARNLPFLIKKDAQDEVLPCLLSPFSLLLYHLPSVSITSLLRQLMNLPQSAATPALSNPHLTAVLQNKFGLSLLLILLSRGEDLQSSDPATESTQNNQWTEVMFMATRELLRIPQAALAKPISIPTNLVSLFSRYVDRQKLNLLETKLQLVQGIR
On to B2, for which the figures for the binding result (in test [1]; in the test with FLAG-4E-T1-193 (human); in the test with FLAG-DDX6 (human)) were “binds”, “no binding” and “binds”, respectively.
